In PubChem BioAssay AID330 (DTP/NCI, 2004):
The list shows only some results of the screen, not a fair sample: it gathers tests that were run many times, whatever their T/C, doses with no T/C, and many T/C values between a quarter and a half above the control. Other doses and runs of a compound stand elsewhere. T/C is the treated group as % of the vehicle group. Some entries give survivors of the animals treated and no T/C: the source holds a T/C of zero for them, seemingly a mark for toxic or unscored doses. Some survivor counts are full or nearly so, which does not show that the dose was tolerated: the source hardly ever lists a survival T/C far under the control, and the zero likely stands for such cases as well. Counts of survivors are from the toxicity check (mostly the fifth day) where no day follows; animals may have died later. Schedules are NCI's codes, read here as Q, the interval in days (D) or hours (H), X, the number of doses. Some entries were tested several times; the results are listed from low to high. Some molecules as drawn cover several salts, stereoisomers or complexes of the source; a dose is that of the sample tested. Counts like (3×) count equal records among those shown. Where survival is the endpoint, the PubChem record calls one and a half times the control and up active, and a quarter to a half above the control has no call in these data; cut-offs in other NCI protocols can differ.

System: P388 leukemia ip, CD2F1 mice, survival T/C
Test: NCI In Vivo Anticancer Drug Screen. Data for tumor model P388 Leukemia (intraperitoneal) in CD2F1 (CDF1) mice
Details: T/C endpoint: median survival time, higher T/C = longer survival
[1] = dose: 50.0 mg/kg/injection, schedule: Q04DX003 (ip), vehicle: Klucel (hydroxypropylcellulose) (HPC)
[2] = dose: 100.0 mg/kg/injection, schedule: Q04DX003 (ip), vehicle: Klucel (hydroxypropylcellulose) (HPC)
[3] = dose: 200.0 mg/kg/injection, schedule: Q04DX003 (ip), vehicle: Klucel (hydroxypropylcellulose) (HPC)
[4] = dose: 120.0 mg/kg/injection, schedule: Q01DX005 (ip), vehicle: saline with Tween-80
[5] = dose: 400.0 mg/kg/injection, schedule: Q04DX003 (ip), vehicle: Klucel (hydroxypropylcellulose) (HPC)
[6] = dose: 200.0 mg/kg/injection, schedule: Q01DX009 (ip), vehicle: saline with Tween-80
[7] = dose: 400.0 mg/kg/injection, schedule: Q01DX009 (ip), vehicle: Klucel (hydroxypropylcellulose) (HPC)
[8] = dose: 200.0 mg/kg/injection, schedule: Q01DX005 (ip), vehicle: saline with Tween-80

N#CN=[N+]([O-])c1ccccc1 was tested, and the survivor count [1] was 4 of 6, the survivor count [2] was 1 of 6 and the survivor count [3] was 0 of 6.
With O=C(c1ccccc1)c1ccccc1NCC(O)COc1ccc(Cl)cc1 (centres undefined) the survivor count [4] was 6 of 6.
Cn1nc(-c2ccc3c(c2)OCO3)[n+]([O-])c2c(=O)n(C)c(=O)nc1-2 was tested, and the survivor count (dose: 25.0 mg/kg/injection, schedule: Q04DX003 (ip), vehicle: Klucel (hydroxypropylcellulose) (HPC)) was 0 of 6, the survivor count [1] was 0 of 6 and the survivor count [2] was 0 of 6. The survivor count [3] was 0 of 6 and the survivor count [5] was 0 of 6.
With C[N+]1(C)CCCC2CCc3ccccc3C21 (centres undefined) the survivor count [2] was 0 of 6, the survivor count [3] was 0 of 6 and the survivor count [5] was 0 of 6.
With ONC1CC(NO)CC(NO)C1 (centres undefined) the survivor count (dose: 400.0 mg/kg/injection, schedule: Q01DX001 (ip), vehicle: saline) was 6 of 6.
CN(CCNN1CCCC1)Cc1ccccc1Cl was tested, and the survivor count (dose: 200.0 mg/kg/injection, schedule: Q01DX005 (ip), vehicle: saline) was 0 of 5.
For O=C(NC(=O)C(F)(F)F)Nc1ccc(Cl)cc1, the survivor count [6] was 5 of 6.
CCC1C2CC3C4N(C)c5ccccc5C45CC(C2C5O)N3C1O (centres undefined) was tested, and the survivor count [4] was 3 of 6 and the survivor count (dose: 240.0 mg/kg/injection, schedule: Q01DX005 (ip), vehicle: saline with Tween-80) was 0 of 6 (2×).
For CC(=O)Oc1cc2oc([O-])c[n+]2c2ccccc12, the survivor count (dose: 120.0 mg/kg/injection, schedule: Q01DX005 (ip), vehicle: Klucel + Tween-80) was 3 of 6, the survivor count (dose: 240.0 mg/kg/injection, schedule: Q01DX005 (ip), vehicle: Klucel + Tween-80) was 0 of 6 and the survivor count (dose: 400.0 mg/kg/injection, schedule: Q01DX001 (ip), vehicle: saline with Tween-80) was 0 of 6 and 2 of 5.
In the case of NNC(=O)c1ccccc1N, the survivor count (dose: 100.0 mg/kg/injection, schedule: Q01DX009 (ip), vehicle: water) is reported as 2 of 6 and the survivor count (dose: 200.0 mg/kg/injection, schedule: Q01DX009 (ip), vehicle: water) is reported as 0 of 6.
For CC(C)CC1NC(=O)C(NC(=O)c2ncccc2O)C(C)OC(=O)C(c2ccccc2)N(C)C(=O)C(C)NC(=O)C(C(C)C(C)C)N(C)C(=O)CN(C)C(=O)C2CC(O)CN2C1=O (centres undefined), the survivor count (dose: 50.0 mg/kg/injection, schedule: Q01DX009 (ip), vehicle: Klucel (hydroxypropylcellulose) (HPC)) was 6 of 6, the survivor count [7] was 0 of 6 and 1 of 6 and the survivor count (dose: 600.0 mg/kg/injection, schedule: Q01DX009 (ip), vehicle: Klucel (hydroxypropylcellulose) (HPC)) was 0 of 6.
For Cc1cc(C)n(-c2ccc(-c3cc(=O)c4ccccc4o3)cc2)n1, the survivor count [8] was 6 of 6.
For N=c1sccn1CC(O)c1ccccc1 (centres undefined), the survivor count (dose: 400.0 mg/kg/injection, schedule: Q01DX001 (ip), vehicle: Klucel (hydroxypropylcellulose) (HPC)) was 0 of 6.
For CCCCC1SC2=NCCCN2C1(O)c1ccc(Cl)cc1 (centres undefined), the survivor count [6] was 0 of 6.
In the case of [Cl][Eu][Cl], the survivor count (dose: 200.0 mg/kg/injection, schedule: Q01DX009 (ip), vehicle: saline) is reported as 5 of 6 and the survivor count (dose: 400.0 mg/kg/injection, schedule: Q01DX009 (ip), vehicle: saline) is reported as 0 of 6.
In the case of NS(=O)(=O)c1ccc(N=c2c3ccccc3n(Cc3ccccc3)c3ccccc23)cc1, the survivor count [8] is reported as 0 of 6.
Cc1cc(NC(=S)SCc2ccc(Cl)cc2)ccc1Br was tested, and the T/C (dose: 100.0 mg/kg/injection, schedule: Q01DX009 (ip), vehicle: saline with Tween-80) was 135 % of control, the survivor count (dose: 200.0 mg/kg/injection, schedule: Q01DX009 (ip), vehicle: Klucel (hydroxypropylcellulose) (HPC)) was 5 of 6 and the survivor count [7] was 0 of 6.
For Cc1cc(C)[n+](C)c2cc3ccccc3cc12, the T/C (dose: 25.0 mg/kg/injection, schedule: Q01DX005 (ip), vehicle: saline with Tween-80) was 125 % of control and the survivor count (dose: 100.0 mg/kg/injection, schedule: Q01DX005 (ip), vehicle: saline with Tween-80) was 2 of 5.
In the case of CNC(=S)SC1=NS(=O)(=O)c2ccccc2N1, the T/C (dose: 240.0 mg/kg/injection, schedule: Q01DX005 (ip), vehicle: Klucel (hydroxypropylcellulose) (HPC)) is reported as 134 % of control (2×).
In the case of C=C1C(=O)[C@@]23CC1C(O)[C@@H](OC(C)=O)[C@@H]2C1(C)C(OC(C)=O)C[C@@H](OC(C)=O)C(C)(C)[C@@H]1C[C@H]3OC(C)=O (some centres undefined), the survivor count (dose: 100.0 mg/kg/injection, schedule: Q01DX005 (ip), vehicle: Klucel (hydroxypropylcellulose) (HPC)) is reported as 2 of 6 and the survivor count (dose: 200.0 mg/kg/injection, schedule: Q01DX005 (ip), vehicle: Klucel (hydroxypropylcellulose) (HPC)) is reported as 0 of 6.
